The target of test [1] is soluble full length CR2 (human) (UniProt P20023). Description: competitive ELISA; soluble C3d mutant as competitor against plate-bound wild type C3d.
Test [2] shares this target. Description: competitive ELISA; soluble C3d as competitor against plate-bound wild type C3d.

The chains behind the UniProt entries cited, without tags or fusion partners. Where a name states a change or a piece, a line headed by the entry shows the natural chain unless it says otherwise.
UniProt P20023: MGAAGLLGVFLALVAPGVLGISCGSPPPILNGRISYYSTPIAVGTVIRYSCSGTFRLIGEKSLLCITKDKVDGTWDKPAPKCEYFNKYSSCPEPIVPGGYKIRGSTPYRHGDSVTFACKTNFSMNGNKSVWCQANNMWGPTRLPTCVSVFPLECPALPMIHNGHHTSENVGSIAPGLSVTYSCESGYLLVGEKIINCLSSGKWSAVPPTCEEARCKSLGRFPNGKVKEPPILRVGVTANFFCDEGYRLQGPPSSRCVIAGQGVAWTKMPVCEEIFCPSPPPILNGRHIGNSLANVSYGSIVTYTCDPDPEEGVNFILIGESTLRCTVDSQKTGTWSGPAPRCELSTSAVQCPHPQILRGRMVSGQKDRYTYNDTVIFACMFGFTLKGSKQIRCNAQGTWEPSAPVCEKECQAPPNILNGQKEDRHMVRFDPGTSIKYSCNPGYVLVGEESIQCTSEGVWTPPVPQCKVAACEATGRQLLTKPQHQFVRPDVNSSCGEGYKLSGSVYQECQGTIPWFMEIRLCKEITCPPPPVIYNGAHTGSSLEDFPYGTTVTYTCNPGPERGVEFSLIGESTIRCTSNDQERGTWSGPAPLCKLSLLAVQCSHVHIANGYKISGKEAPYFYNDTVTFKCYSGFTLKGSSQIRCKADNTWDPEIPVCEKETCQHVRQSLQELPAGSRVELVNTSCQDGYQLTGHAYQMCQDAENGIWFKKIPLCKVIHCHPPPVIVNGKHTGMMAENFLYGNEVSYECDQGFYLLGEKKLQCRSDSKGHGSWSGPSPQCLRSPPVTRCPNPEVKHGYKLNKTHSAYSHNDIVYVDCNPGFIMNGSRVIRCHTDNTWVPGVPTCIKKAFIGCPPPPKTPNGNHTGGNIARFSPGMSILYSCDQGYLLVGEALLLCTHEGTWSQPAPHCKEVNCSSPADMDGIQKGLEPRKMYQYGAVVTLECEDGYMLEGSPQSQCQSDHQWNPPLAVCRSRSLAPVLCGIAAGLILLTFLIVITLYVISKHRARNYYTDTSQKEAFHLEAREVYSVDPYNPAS
UniProt P01024: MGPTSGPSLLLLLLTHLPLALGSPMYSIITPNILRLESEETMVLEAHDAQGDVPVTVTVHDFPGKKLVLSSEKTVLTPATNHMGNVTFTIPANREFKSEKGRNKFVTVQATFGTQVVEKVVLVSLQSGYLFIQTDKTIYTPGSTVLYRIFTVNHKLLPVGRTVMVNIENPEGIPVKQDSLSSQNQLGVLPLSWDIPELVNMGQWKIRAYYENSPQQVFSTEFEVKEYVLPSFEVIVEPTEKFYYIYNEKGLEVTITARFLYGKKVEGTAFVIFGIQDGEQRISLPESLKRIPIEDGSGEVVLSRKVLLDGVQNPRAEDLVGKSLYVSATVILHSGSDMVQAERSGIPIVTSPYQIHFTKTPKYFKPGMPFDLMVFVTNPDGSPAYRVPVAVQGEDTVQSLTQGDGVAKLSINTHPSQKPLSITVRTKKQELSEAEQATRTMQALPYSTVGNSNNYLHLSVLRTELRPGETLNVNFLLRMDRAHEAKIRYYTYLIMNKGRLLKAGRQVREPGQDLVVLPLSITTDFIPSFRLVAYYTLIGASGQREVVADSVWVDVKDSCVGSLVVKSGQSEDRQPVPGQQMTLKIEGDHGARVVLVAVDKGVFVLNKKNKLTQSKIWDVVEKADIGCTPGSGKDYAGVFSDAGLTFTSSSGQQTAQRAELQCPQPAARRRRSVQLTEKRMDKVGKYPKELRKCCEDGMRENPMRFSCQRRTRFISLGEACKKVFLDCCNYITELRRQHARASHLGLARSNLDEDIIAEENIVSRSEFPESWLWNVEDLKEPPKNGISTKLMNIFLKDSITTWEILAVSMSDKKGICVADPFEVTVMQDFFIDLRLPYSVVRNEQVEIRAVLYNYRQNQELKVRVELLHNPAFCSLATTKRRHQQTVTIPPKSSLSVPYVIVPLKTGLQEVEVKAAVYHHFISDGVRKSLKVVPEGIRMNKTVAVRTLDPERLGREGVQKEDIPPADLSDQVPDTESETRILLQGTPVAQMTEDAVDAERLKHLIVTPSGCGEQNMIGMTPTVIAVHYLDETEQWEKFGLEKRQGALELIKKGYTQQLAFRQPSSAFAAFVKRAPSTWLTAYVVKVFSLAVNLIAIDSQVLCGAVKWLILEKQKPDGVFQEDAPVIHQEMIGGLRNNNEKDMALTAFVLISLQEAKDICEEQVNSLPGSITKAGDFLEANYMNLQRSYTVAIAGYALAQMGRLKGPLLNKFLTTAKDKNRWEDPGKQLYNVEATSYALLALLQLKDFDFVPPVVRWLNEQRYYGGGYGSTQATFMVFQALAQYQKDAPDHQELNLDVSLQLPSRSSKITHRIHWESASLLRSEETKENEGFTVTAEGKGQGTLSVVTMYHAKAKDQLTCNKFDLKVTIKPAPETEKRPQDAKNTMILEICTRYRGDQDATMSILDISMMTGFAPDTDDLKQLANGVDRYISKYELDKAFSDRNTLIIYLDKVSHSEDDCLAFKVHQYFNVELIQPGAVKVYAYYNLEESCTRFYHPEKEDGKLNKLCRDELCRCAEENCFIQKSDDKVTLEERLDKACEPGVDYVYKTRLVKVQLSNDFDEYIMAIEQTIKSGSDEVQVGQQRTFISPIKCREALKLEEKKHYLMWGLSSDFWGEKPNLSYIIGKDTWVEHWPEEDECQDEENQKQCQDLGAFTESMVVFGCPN

No constants are given. Whether binding was seen depends on the method and setting. Some binding calls cover weakened binding; strength is not graded here.

In the case of “C3d mutant Gln105Ala, Leu116Ala, Glu117Ala (from UniProt P01024 996-1303) (ligand)”, in test [1], the binding entry is on record as “binds”.
On to “human complement C3d, wild type (from UniProt P01024 996-1303) (ligand)”, for which the binding result in test [2] is given as “binds”.

(Values after patent US20040005538A1.)
